These are yes or no findings as the source states them, for the method shown. Some results given as binding are weak or reduced against the parent protein; the word gives no strength.
Target: estrogen receptor α (ERα) (human (endogenous in MCF7)) (UniProt P03372)
Assay: sequential ChIP (re-ChIP); MCF7 cells untreated or treated with E2 (10 nM) and/or ICI 182,780 (20 nM); nuclei cross-linked with 1% formaldehyde, chromatin sonicated to ~1,000 bp; first immunoprecipitation with anti-ERα, elution in re-chip buffer at 37°C for 30 min, second immunoprecipitation with anti-NCoR, anti-SMRT or anti-LCoR; read-out PCR of the distal and proximal EREs of the MLK3 promoter

Sequences of proteins named here, by UniProt entry; tags and fusion partners are left off.
UniProt P03372: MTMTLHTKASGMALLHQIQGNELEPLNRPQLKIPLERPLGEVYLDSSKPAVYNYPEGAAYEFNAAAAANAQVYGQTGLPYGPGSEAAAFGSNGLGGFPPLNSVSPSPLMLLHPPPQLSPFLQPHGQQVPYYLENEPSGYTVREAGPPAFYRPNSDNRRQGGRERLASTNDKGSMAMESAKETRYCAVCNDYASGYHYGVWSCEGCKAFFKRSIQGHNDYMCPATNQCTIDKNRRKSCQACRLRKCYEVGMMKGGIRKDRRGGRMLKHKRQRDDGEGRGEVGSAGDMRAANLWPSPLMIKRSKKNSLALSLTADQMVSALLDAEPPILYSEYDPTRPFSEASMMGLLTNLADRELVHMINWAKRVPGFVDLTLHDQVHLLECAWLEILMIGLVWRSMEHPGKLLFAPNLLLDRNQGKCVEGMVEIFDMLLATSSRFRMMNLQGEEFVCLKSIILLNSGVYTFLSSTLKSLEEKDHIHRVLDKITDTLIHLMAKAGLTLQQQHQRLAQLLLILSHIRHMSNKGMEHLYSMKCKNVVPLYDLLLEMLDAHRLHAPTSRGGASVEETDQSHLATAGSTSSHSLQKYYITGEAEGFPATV
UniProt O75376: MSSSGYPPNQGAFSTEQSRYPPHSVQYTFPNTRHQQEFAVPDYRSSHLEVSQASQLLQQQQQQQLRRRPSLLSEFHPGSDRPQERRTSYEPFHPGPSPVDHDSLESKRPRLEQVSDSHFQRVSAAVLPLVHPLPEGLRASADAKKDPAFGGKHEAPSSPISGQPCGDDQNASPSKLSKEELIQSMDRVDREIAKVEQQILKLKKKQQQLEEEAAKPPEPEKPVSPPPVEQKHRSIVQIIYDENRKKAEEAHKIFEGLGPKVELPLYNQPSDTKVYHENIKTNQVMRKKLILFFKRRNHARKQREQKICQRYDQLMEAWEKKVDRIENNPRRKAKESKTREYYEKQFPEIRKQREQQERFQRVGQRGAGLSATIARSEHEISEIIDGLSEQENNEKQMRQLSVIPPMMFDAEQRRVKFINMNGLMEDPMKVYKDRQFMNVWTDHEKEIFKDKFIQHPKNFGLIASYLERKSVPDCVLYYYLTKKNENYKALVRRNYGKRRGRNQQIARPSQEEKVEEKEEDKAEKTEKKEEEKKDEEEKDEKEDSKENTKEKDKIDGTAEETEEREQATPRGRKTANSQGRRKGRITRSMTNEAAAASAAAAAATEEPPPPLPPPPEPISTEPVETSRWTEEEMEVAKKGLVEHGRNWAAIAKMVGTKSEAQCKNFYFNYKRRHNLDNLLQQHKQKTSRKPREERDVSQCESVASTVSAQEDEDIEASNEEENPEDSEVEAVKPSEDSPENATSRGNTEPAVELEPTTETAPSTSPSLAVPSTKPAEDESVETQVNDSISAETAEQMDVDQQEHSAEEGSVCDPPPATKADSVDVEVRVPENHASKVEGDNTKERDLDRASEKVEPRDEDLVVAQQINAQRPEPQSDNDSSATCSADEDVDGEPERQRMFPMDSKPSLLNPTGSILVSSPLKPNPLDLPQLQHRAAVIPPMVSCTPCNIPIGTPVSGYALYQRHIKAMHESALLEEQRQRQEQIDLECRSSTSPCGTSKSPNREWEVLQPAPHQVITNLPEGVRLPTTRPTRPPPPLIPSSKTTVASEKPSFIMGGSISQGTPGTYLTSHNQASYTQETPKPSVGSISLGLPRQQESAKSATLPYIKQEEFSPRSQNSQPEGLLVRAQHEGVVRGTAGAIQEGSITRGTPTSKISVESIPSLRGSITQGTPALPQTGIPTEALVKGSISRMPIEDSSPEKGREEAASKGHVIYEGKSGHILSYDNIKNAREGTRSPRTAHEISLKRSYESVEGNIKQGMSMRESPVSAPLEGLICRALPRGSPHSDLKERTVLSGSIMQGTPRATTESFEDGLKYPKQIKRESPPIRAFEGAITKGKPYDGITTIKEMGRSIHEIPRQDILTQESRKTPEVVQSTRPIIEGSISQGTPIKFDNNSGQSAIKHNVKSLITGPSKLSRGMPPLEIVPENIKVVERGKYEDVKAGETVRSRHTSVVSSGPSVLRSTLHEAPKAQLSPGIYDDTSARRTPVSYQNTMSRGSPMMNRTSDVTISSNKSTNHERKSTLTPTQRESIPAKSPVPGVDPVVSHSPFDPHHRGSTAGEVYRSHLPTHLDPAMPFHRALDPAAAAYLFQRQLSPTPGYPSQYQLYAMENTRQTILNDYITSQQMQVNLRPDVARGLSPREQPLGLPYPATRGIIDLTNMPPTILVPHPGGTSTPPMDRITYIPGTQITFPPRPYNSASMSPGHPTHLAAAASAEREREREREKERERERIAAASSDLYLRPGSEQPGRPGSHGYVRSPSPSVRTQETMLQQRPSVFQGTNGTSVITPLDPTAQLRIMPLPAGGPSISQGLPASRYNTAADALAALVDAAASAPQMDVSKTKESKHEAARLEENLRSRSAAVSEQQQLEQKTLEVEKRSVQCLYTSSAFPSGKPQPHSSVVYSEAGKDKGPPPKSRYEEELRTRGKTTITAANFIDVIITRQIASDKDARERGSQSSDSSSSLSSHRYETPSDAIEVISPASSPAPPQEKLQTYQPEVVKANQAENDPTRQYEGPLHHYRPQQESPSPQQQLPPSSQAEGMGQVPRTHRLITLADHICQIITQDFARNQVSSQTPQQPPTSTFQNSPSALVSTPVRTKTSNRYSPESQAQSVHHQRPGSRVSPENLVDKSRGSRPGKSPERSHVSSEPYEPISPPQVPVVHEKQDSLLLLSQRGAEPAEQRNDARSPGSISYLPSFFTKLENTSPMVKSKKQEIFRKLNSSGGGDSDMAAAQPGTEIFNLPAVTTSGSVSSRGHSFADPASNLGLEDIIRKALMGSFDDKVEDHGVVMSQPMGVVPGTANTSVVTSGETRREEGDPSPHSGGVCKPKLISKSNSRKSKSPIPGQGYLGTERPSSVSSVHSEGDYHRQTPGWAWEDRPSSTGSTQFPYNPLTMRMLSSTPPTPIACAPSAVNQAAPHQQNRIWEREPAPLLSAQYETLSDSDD

In the case of “Nuclear Receptor Corepressor (NcoR) (from UniProt O75376 1-2440)”, the binding is reported as “binds”.

B1: Ligand dependent Corepressor (LCoR) (protein, UniProt Q96JN0 1-433)
chain: MQRMIQQFAAEYTSKNSSTQDPSQPNSTKNQSLPKASPVTTSPTAATTQNPVLSKLLMADQDSPLDLTVRKSQSEPSEQDGVLDLSTKKSPCAGSTSLSHSPGCSSTQGNGRPGRPSQYRPDGLRSGDGVPPRSLQDGTREGFGHSTSLKVPLARSLQISEELLSRNQLSTAASLGPSGLQNHGQHLILSREASWAKPHYEFNLSRMKFRGNGALSNISDLPFLAENSAFPKMALQAKQDGKKDVSHSSPVDLKIPQVRGMDLSWESRTGDQYSYSSLVMGSQTESALSKKLRAILPKQSRKSMLDAGPDSWGSDAEQSTSGQPYPTSDQEGDPGSKQPRKKRGRYRQYNSEILEEAISVVMSGKMSVSKAQSIYGIPHSTLEYKVKERLGTLKNPPKKKMKLMRSEGPDVSVKIELDPQGEAAQSANESKNE
In the case of B1, the binding is reported as “binds”.
